We go through 39 targets from the supplement of paper PMC12067093, “Discovery and optimisation of a covalent ligand for TRIM25 and its application to targeted protein ubiquitination” (Chemical Science, 2025).

By UniProt entry, the sequences of proteins in these tests, tags left out. Where a name states a change or a piece, a line headed by the entry shows the natural chain unless it says otherwise.
UniProt Q9GZP4: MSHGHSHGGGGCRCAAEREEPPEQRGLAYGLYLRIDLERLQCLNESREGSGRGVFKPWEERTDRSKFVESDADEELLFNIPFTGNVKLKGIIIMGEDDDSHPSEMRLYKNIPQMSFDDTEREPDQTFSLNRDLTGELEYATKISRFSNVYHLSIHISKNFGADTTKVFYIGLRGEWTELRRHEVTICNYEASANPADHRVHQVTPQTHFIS
UniProt Q8TD55: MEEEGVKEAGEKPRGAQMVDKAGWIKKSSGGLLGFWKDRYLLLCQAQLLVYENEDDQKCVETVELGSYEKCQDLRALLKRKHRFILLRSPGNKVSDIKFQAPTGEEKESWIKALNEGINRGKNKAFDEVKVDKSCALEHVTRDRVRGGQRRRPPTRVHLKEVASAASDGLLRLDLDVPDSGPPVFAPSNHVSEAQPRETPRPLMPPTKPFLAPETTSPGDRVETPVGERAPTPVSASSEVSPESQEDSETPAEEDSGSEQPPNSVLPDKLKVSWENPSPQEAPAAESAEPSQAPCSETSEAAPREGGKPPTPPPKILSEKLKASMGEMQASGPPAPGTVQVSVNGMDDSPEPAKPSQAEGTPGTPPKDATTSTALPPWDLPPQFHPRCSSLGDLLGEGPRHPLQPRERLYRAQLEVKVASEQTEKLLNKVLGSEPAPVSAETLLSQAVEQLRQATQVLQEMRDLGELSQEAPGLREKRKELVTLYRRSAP
UniProt Q8NHP8: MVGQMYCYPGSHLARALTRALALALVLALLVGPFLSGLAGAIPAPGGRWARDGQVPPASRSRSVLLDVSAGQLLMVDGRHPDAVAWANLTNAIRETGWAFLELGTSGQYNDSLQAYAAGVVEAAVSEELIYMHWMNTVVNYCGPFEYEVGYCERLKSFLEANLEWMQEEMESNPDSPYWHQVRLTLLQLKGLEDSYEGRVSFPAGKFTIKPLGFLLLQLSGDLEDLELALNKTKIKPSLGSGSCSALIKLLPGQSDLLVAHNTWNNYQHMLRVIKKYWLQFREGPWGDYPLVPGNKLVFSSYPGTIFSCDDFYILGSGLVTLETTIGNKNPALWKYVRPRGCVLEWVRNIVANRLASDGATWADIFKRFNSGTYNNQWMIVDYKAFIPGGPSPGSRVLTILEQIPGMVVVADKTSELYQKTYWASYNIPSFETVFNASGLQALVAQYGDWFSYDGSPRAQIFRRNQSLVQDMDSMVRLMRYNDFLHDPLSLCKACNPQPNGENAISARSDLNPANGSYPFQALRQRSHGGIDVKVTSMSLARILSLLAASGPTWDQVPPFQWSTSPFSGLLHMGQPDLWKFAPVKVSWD
UniProt Q9HB19: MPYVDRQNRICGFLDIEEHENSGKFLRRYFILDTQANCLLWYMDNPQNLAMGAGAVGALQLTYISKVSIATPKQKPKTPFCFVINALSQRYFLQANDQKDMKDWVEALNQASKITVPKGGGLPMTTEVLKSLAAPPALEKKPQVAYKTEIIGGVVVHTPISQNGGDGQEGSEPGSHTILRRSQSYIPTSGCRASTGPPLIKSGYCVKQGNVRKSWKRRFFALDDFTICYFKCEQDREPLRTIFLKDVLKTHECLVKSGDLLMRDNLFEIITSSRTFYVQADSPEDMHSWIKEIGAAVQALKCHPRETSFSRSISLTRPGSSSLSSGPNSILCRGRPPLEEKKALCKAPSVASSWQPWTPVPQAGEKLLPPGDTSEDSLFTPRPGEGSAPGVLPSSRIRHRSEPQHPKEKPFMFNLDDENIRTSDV
UniProt Q10713: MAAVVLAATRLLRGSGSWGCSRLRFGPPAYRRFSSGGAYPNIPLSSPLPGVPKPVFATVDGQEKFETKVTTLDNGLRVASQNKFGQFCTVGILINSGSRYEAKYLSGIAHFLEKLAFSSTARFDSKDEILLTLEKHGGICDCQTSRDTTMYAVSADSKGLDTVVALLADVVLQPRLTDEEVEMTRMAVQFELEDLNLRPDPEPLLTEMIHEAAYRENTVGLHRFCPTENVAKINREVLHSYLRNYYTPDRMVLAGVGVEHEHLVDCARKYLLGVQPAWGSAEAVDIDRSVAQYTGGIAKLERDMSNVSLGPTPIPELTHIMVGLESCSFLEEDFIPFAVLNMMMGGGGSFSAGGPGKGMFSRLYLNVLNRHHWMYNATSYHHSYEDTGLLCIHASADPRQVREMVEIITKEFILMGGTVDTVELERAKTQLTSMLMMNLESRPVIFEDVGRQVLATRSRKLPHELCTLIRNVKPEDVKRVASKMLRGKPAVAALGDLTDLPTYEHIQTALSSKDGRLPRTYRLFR
UniProt Q00722, whole entry, looked up: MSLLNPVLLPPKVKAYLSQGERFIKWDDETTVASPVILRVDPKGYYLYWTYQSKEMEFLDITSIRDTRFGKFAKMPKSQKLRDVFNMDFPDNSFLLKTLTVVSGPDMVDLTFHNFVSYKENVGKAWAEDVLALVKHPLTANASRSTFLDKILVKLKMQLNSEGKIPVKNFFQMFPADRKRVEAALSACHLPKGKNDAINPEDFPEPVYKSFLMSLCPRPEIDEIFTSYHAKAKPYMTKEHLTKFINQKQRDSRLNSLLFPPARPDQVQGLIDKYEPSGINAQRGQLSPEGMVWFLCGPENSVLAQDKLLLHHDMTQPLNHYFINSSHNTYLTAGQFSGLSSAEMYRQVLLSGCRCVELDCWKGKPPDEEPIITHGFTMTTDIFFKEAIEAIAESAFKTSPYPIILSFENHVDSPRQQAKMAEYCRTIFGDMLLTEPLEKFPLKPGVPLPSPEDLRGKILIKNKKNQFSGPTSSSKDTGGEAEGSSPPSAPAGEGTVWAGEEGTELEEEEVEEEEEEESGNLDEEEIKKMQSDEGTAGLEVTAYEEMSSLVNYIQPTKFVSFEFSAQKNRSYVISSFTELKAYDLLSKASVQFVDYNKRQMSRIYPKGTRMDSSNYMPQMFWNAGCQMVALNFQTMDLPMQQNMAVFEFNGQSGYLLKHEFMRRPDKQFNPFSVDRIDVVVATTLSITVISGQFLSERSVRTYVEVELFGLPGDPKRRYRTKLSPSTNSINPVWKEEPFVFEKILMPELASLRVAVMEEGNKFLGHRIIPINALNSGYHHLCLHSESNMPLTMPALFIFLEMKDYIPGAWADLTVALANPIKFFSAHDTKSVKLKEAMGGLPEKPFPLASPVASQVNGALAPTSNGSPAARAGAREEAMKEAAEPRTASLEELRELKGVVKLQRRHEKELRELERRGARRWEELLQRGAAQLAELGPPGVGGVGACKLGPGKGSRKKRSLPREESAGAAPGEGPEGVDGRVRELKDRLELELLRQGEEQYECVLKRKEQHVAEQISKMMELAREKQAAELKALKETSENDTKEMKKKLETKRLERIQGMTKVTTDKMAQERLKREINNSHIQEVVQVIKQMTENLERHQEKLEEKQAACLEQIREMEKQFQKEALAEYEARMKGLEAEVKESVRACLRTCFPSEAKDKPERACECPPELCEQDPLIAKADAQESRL
UniProt Q9UPR0: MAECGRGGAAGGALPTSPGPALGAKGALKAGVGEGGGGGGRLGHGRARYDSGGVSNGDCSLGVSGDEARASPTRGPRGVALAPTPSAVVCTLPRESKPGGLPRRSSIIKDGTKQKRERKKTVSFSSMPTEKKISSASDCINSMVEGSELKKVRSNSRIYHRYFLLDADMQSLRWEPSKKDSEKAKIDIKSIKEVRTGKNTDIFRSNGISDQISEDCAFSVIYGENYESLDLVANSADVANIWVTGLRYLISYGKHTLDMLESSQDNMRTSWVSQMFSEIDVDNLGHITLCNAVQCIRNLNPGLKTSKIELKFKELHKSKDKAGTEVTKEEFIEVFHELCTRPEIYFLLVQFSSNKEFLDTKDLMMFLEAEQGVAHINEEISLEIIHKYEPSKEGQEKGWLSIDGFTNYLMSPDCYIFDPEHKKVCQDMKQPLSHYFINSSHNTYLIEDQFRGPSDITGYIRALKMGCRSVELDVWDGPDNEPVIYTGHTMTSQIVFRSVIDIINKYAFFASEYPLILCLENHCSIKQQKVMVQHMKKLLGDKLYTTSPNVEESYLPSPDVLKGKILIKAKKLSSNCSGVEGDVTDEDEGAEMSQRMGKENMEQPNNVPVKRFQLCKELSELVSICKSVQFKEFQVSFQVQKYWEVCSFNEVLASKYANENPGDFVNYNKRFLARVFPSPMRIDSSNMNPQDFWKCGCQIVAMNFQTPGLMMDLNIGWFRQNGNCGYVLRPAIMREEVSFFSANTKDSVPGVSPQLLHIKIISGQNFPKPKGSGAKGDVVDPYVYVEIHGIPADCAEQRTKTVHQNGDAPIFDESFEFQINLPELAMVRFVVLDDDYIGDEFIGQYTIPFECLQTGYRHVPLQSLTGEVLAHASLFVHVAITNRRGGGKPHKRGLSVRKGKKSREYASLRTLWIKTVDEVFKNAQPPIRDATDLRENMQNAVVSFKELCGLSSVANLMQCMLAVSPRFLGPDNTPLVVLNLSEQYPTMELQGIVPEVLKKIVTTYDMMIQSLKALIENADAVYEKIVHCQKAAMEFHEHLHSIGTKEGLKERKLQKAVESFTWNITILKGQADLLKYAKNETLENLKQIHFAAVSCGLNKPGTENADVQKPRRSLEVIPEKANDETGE
UniProt P48736: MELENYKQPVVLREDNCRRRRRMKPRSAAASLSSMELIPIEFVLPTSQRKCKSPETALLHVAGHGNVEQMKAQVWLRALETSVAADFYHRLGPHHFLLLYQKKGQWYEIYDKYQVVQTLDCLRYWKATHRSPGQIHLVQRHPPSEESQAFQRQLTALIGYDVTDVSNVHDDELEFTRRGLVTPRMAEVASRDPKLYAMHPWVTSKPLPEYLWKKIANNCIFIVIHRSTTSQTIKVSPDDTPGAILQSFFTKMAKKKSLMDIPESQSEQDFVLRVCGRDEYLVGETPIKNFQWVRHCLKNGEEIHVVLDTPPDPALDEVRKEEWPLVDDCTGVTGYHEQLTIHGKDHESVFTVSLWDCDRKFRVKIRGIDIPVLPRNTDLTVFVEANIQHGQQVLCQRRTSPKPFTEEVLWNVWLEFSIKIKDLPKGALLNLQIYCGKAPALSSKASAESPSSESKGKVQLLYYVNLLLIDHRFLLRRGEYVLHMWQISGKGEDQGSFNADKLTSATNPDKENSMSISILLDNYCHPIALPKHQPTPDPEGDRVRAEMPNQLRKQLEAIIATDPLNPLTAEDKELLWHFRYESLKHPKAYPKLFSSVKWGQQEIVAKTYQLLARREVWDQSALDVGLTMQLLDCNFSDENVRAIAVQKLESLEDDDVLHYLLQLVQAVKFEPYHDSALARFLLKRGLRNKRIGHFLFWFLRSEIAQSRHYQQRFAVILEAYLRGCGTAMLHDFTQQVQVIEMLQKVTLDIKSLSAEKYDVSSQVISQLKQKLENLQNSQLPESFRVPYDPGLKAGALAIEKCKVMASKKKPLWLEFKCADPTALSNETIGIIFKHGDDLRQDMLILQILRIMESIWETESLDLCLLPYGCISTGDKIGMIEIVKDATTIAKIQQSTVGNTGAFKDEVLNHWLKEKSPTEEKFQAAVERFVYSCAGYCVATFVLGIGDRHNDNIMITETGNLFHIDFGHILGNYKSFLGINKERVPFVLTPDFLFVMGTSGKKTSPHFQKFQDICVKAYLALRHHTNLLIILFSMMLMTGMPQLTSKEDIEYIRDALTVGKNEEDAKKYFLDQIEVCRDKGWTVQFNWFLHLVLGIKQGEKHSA
UniProt Q8NCC3: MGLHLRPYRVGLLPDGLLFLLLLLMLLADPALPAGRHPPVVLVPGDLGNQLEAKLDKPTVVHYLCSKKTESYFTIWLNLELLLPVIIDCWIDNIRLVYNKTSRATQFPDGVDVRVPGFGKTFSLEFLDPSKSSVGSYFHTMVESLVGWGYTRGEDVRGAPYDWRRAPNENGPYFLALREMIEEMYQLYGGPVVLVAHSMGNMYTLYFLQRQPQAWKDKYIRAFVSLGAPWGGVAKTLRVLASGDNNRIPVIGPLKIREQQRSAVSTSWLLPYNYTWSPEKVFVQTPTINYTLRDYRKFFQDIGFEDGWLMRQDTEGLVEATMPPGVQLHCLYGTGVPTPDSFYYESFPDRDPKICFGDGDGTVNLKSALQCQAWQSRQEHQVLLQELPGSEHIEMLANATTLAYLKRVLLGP
UniProt Q8TBX8: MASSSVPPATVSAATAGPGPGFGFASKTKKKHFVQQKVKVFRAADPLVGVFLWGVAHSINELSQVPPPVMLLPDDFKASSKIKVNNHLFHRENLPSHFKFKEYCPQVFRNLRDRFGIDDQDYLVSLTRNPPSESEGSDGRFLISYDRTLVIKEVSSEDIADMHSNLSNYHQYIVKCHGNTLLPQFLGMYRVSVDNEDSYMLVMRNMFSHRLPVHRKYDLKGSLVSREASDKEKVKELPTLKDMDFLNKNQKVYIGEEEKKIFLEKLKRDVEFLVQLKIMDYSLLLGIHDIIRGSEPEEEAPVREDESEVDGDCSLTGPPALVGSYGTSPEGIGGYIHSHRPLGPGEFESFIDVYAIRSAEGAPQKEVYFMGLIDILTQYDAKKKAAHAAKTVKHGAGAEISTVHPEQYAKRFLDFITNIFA

Some of the results follow.
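Also: competitive profiling in live THP-1 cells: cysteine peptides tagged with an iodoacetamide desthiobiotin (IA-DTB) probe, intensity after compound treatment relative to DMSO-treated cells.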

Compound in the first assay: Cc1cc(ccc1-c1ccccc1)C(=O)N1CCCN(CC1)C(=O)CCl [compound 10]
The assay can be described thus: probe-labelled cysteine peptide fold change vs DMSO (competition) (log2 fold change); higher = less target engagement (more negative = stronger competition). Particulars: 10 µM; THP-1; incubation time: 4 h.
In the case of “PLEC_Q15149_4254_CITDPQTGLCLLPLK (UniProt Q15149)”, the “probe-labelled cysteine peptide fold change” value is 0.675.

With “PITHD1_Q9GZP4_187_HEVTICNYEASANPADHR (UniProt Q9GZP4)”, the “probe-labelled cysteine peptide fold change” value is -0.0875.

Turning to “PLEKHO2_Q8TD55_135_SCALEHVTR (UniProt Q8TD55)”, the “probe-labelled cysteine peptide fold change” value is -0.12.

For “PKN1_Q16512_662_DEVESLMCEK (UniProt Q16512)”, the “probe-labelled cysteine peptide fold change” value is 0.0527.

As to “PLCG2_P16885_791_RSDELSFCR (UniProt P16885)”, the “probe-labelled cysteine peptide fold change” value is -0.13.

For the target “PLAA_Q9Y263_208_GLAILSETEFLSCANDASIR (UniProt Q9Y263)”, the “probe-labelled cysteine peptide fold change” value amounted to 0.00615.

Regarding “PLBD2_Q8NHP8_492_YNDFLHDPLSLCK (UniProt Q8NHP8)”, the “probe-labelled cysteine peptide fold change” value stood at 0.0964.

Consider “PLD1_Q13393_1004_CLPNDEVHNLIQLR (UniProt Q13393)”, for which the “probe-labelled cysteine peptide fold change” value came out at 0.182.

Take “PNPT1_Q8TCS8_668_DFITEICK (UniProt Q8TCS8)”: the “probe-labelled cysteine peptide fold change” value worked out at 0.0622.

Consider “PLEKHA2_Q9HB19_11_ICGFLDIEEHENSGK (UniProt Q9HB19)”, for which the “probe-labelled cysteine peptide fold change” value was -0.114.

Turning to “PIK3R4_Q99570_759_NGSLPDCPPPEDPAIAQLLK (UniProt Q99570)”, the “probe-labelled cysteine peptide fold change” value was -0.172.

Take “PML_P29590_389_LQDLSSCITQGK (UniProt P29590)”: the “probe-labelled cysteine peptide fold change” value was -0.416.

On to “PMPCA_Q10713_466_LPHELCTLIR (UniProt Q10713)”, for which the “probe-labelled cysteine peptide fold change” value was -0.174.

Take “PNP_P00491_31_HRPQVAIICGSGLGGLTDKLTQAQIFDYGEIPNFPR (UniProt P00491)”: the “probe-labelled cysteine peptide fold change” value is -0.185.

Turning to “PLEC_Q15149_545_LQMEAGLCEEQLNQADALLQSDVR (UniProt Q15149)”, the “probe-labelled cysteine peptide fold change” value is -0.0261.

On to “PIK3R4_Q99570_1097_ILDQKEDGCVVDMHHFNSGAQSVLAYATVNGSLVGWDLR (UniProt Q99570)”, for which the “probe-labelled cysteine peptide fold change” value is 0.126.

“PLXNC1_O60486_1217_IPENESADVCR (UniProt O60486)”: the “probe-labelled cysteine peptide fold change” value was determined as 0.0771.

As for “PNKD_Q8N490_347_THCLALQEALGPGPGPTGDDDYSR (UniProt Q8N490)”, the “probe-labelled cysteine peptide fold change” value was -0.352.

As to “PMS1_P54277_457_TCFISSVK (UniProt P54277)”, the “probe-labelled cysteine peptide fold change” value was -0.325.

Turning to “PKN1_Q16512_662_KGDIVARDEVESLMCEK (UniProt Q16512)”, the “probe-labelled cysteine peptide fold change” value is -0.0461.

On to “PLCB2_Q00722_945_GAAQLAELGPPGVGGVGACK (UniProt Q00722)”, for which the “probe-labelled cysteine peptide fold change” value was -0.565.

As for “PLCL2_Q9UPR0_1095_QIHFAAVSCGLNKPGTENADVQKPR (UniProt Q9UPR0)”, the “probe-labelled cysteine peptide fold change” value is -0.0777.

“PML_P29590_57_CQQCQAEAK (UniProt P29590)”: the “probe-labelled cysteine peptide fold change” value stood at 0.138.

Regarding “PLCG1_P19174_12_AGAASPCANGCGPGAPSDAEVLHLCR (UniProt P19174)”, the “probe-labelled cysteine peptide fold change” value was -0.394.

Turning to “PIK3R4_Q99570_358_DLGNIIHNLCGHDLPEK (UniProt Q99570)”, the “probe-labelled cysteine peptide fold change” value was 0.0667.

As for “PLOD3_O60568_698_YDCVISSPR (UniProt O60568)”, the “probe-labelled cysteine peptide fold change” value worked out at 0.0414.

For “PIKFYVE_Q9Y2I7_1677_EPSSIIAFALSCK (UniProt Q9Y2I7)”, the “probe-labelled cysteine peptide fold change” value is -0.0688.

With “PLAA_Q9Y263_143_CMMTLQGHTAAVWAVK (UniProt Q9Y263)”, the “probe-labelled cysteine peptide fold change” value was -0.0439.

With “PLXND1_Q9Y4D7_752_CEASPNPTSPQDCPR (UniProt Q9Y4D7)”, the “probe-labelled cysteine peptide fold change” value is 0.0199.

In the case of “PIK3CD_O00329_90_RLCDVQPFLPVLR (UniProt O00329)”, the “probe-labelled cysteine peptide fold change” value came to 0.0359.

On to “PIK3CG_P48736_817_CADPTALSNETIGIIFK (UniProt P48736)”, for which the “probe-labelled cysteine peptide fold change” value came out at 0.0584.

Consider “PLCG2_P16885_624_CAEFELR (UniProt P16885)”, for which the “probe-labelled cysteine peptide fold change” value is -0.099.

Turning to “PLEC_Q15149_530_SEFERLECLQR (UniProt Q15149)”, the “probe-labelled cysteine peptide fold change” value was -0.204.

With “PLA2G15_Q8NCC3_65_LDKPTVVHYLCSK (UniProt Q8NCC3)”, the “probe-labelled cysteine peptide fold change” value is -0.0203.

As for “PLAA_Q9Y263_666_TFCNCFVGQAGQK (UniProt Q9Y263)”, the “probe-labelled cysteine peptide fold change” value was 0.0737.

Regarding “PIK3R2_O00459_50_CPQSVGWMPGLNER (UniProt O00459)”, the “probe-labelled cysteine peptide fold change” value is -0.0764.

With “PIP4K2C_Q8TBX8_176_CHGNTLLPQFLGMYR (UniProt Q8TBX8)”, the “probe-labelled cysteine peptide fold change” value was -0.0542.

For the target “PML_P29590_151_CFEAHQWFLK (UniProt P29590)”, the “probe-labelled cysteine peptide fold change” value was -0.0418.

Consider “PLEC_Q15149_3821_EALEAESAWCYLYGTGSVAGVYLPGSR (UniProt Q15149)”, for which the “probe-labelled cysteine peptide fold change” value was -0.046.

The same assay, now with this note: 50 µM; THP-1; incubation time: 4 h.
For the target “PLEC_Q15149_4254_CITDPQTGLCLLPLK (UniProt Q15149)”, the “probe-labelled cysteine peptide fold change” value was determined as 0.506.

In the case of “PITHD1_Q9GZP4_187_HEVTICNYEASANPADHR (UniProt Q9GZP4)”, the “probe-labelled cysteine peptide fold change” value is -0.312.

With “PLEKHO2_Q8TD55_135_SCALEHVTR (UniProt Q8TD55)”, the “probe-labelled cysteine peptide fold change” value is -0.281.

As to “PKN1_Q16512_662_DEVESLMCEK (UniProt Q16512)”, the “probe-labelled cysteine peptide fold change” value came out at 0.194.

“PLCG2_P16885_791_RSDELSFCR (UniProt P16885)”: the “probe-labelled cysteine peptide fold change” value amounted to 0.0319.

For the target “PLAA_Q9Y263_208_GLAILSETEFLSCANDASIR (UniProt Q9Y263)”, the “probe-labelled cysteine peptide fold change” value stood at 0.0556.

In the case of “PLBD2_Q8NHP8_492_YNDFLHDPLSLCK (UniProt Q8NHP8)”, the “probe-labelled cysteine peptide fold change” value was -0.267.

With “PLD1_Q13393_1004_CLPNDEVHNLIQLR (UniProt Q13393)”, the “probe-labelled cysteine peptide fold change” value amounted to 0.144.

As for “PNPT1_Q8TCS8_668_DFITEICK (UniProt Q8TCS8)”, the “probe-labelled cysteine peptide fold change” value is -0.0875.

With “PLEKHA2_Q9HB19_11_ICGFLDIEEHENSGK (UniProt Q9HB19)”, the “probe-labelled cysteine peptide fold change” value is -0.0094.

In the case of “PIK3R4_Q99570_759_NGSLPDCPPPEDPAIAQLLK (UniProt Q99570)”, the “probe-labelled cysteine peptide fold change” value is -0.018.

“PML_P29590_389_LQDLSSCITQGK (UniProt P29590)”: the “probe-labelled cysteine peptide fold change” value was -0.317.

Turning to “PMPCA_Q10713_466_LPHELCTLIR (UniProt Q10713)”, the “probe-labelled cysteine peptide fold change” value is -0.302.

Take “PNP_P00491_31_HRPQVAIICGSGLGGLTDKLTQAQIFDYGEIPNFPR (UniProt P00491)”: the “probe-labelled cysteine peptide fold change” value is -0.437.

Take “PLEC_Q15149_545_LQMEAGLCEEQLNQADALLQSDVR (UniProt Q15149)”: the “probe-labelled cysteine peptide fold change” value was 0.0475.

For the target “PIK3R4_Q99570_1097_ILDQKEDGCVVDMHHFNSGAQSVLAYATVNGSLVGWDLR (UniProt Q99570)”, the “probe-labelled cysteine peptide fold change” value was determined as 0.0722.

Take “PLXNC1_O60486_1217_IPENESADVCR (UniProt O60486)”: the “probe-labelled cysteine peptide fold change” value was found to be 0.162.

As to “PNKD_Q8N490_347_THCLALQEALGPGPGPTGDDDYSR (UniProt Q8N490)”, the “probe-labelled cysteine peptide fold change” value was -0.252.

For “PMS1_P54277_457_TCFISSVK (UniProt P54277)”, the “probe-labelled cysteine peptide fold change” value was -0.384.

Turning to “PKN1_Q16512_662_KGDIVARDEVESLMCEK (UniProt Q16512)”, the “probe-labelled cysteine peptide fold change” value was -0.217.

“PLCB2_Q00722_945_GAAQLAELGPPGVGGVGACK (UniProt Q00722)”: the “probe-labelled cysteine peptide fold change” value is -0.898.

Consider “PLCL2_Q9UPR0_1095_QIHFAAVSCGLNKPGTENADVQKPR (UniProt Q9UPR0)”, for which the “probe-labelled cysteine peptide fold change” value was -0.356.

In the case of “PML_P29590_57_CQQCQAEAK (UniProt P29590)”, the “probe-labelled cysteine peptide fold change” value came out at 0.0768.

Consider “PLCG1_P19174_12_AGAASPCANGCGPGAPSDAEVLHLCR (UniProt P19174)”, for which the “probe-labelled cysteine peptide fold change” value was -0.544.

Consider “PIK3R4_Q99570_358_DLGNIIHNLCGHDLPEK (UniProt Q99570)”, for which the “probe-labelled cysteine peptide fold change” value came out at 0.145.

Take “PLOD3_O60568_698_YDCVISSPR (UniProt O60568)”: the “probe-labelled cysteine peptide fold change” value was found to be 0.265.

Turning to “PIKFYVE_Q9Y2I7_1677_EPSSIIAFALSCK (UniProt Q9Y2I7)”, the “probe-labelled cysteine peptide fold change” value is -0.11.

Take “PLAA_Q9Y263_143_CMMTLQGHTAAVWAVK (UniProt Q9Y263)”: the “probe-labelled cysteine peptide fold change” value stood at 0.155.

“PLXND1_Q9Y4D7_752_CEASPNPTSPQDCPR (UniProt Q9Y4D7)”: the “probe-labelled cysteine peptide fold change” value is -0.2.

Consider “PIK3CD_O00329_90_RLCDVQPFLPVLR (UniProt O00329)”, for which the “probe-labelled cysteine peptide fold change” value was -0.168.

For “PIK3CG_P48736_817_CADPTALSNETIGIIFK (UniProt P48736)”, the “probe-labelled cysteine peptide fold change” value was 0.0673.

Turning to “PLCG2_P16885_624_CAEFELR (UniProt P16885)”, the “probe-labelled cysteine peptide fold change” value was -0.585.

Turning to “PLEC_Q15149_530_SEFERLECLQR (UniProt Q15149)”, the “probe-labelled cysteine peptide fold change” value is -0.637.

As to “PLA2G15_Q8NCC3_65_LDKPTVVHYLCSK (UniProt Q8NCC3)”, the “probe-labelled cysteine peptide fold change” value was determined as 0.549.

Turning to “PLAA_Q9Y263_666_TFCNCFVGQAGQK (UniProt Q9Y263)”, the “probe-labelled cysteine peptide fold change” value was -0.113.

As for “PIK3R2_O00459_50_CPQSVGWMPGLNER (UniProt O00459)”, the “probe-labelled cysteine peptide fold change” value is -0.249.

As for “PIP4K2C_Q8TBX8_176_CHGNTLLPQFLGMYR (UniProt Q8TBX8)”, the “probe-labelled cysteine peptide fold change” value was -0.0681.

With “PML_P29590_151_CFEAHQWFLK (UniProt P29590)”, the “probe-labelled cysteine peptide fold change” value is -0.379.

Take “PLEC_Q15149_3821_EALEAESAWCYLYGTGSVAGVYLPGSR (UniProt Q15149)”: the “probe-labelled cysteine peptide fold change” value turned out to be 0.134.
